Reference: PMC6054424, “Expression and purification of a functional heteromeric GABAA receptor for structural studies” (PLoS ONE, 2018)
No constants are given. Whether binding was seen depends on the method and setting. Some entries that bind do so weakly or less than the wild type.

The chains behind the UniProt entries cited, without tags or fusion partners. Residues count along the entry.
UniProt P62813, residues 28-455: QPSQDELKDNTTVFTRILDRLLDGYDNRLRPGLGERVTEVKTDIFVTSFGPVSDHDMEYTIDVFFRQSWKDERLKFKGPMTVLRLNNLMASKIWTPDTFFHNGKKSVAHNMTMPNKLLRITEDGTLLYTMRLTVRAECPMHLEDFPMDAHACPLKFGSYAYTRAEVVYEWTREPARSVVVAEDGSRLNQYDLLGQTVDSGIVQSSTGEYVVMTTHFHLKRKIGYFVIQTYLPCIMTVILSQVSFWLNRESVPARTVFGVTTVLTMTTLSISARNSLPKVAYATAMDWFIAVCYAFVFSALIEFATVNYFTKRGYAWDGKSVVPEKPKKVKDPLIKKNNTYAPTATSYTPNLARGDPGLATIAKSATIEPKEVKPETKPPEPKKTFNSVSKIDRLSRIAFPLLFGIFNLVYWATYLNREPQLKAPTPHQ

Target: α1-EGFP (full-length rat GABAA receptor α1 subunit with EGFP in the M3/M4 loop), in oocytes (rat) (UniProt P62813)
Assay: SEC; fluorescence detection SEC (FSEC) of 8-12 oocytes solubilised with 40 mM C12M; Superose6 10/300 GL in TBS pH 8.0, 1 mM C12M, 1 mM EDTA; GFP fluorescence of the tagged subunit followed; ferritin and EGFP as standards

“α1-EGFP (full-length rat GABAA receptor α1 subunit with EGFP in the M3/M4 loop), in oocytes (from UniProt P62813 28-455)” was tested, and the binding was “binds”.
